Measurements published in PMC12581659.

By UniProt entry, the sequences of proteins in these tests, tags left out. Where a name states a change or a piece, a line headed by the entry shows the natural chain unless it says otherwise.
UniProt P06804: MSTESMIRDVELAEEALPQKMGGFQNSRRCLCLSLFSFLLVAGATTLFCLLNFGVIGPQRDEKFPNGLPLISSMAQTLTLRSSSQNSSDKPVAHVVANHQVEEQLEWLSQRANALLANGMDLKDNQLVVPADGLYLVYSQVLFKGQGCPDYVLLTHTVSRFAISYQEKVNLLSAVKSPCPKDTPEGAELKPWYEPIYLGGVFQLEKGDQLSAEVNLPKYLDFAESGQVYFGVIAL
UniProt Q6ZWS8: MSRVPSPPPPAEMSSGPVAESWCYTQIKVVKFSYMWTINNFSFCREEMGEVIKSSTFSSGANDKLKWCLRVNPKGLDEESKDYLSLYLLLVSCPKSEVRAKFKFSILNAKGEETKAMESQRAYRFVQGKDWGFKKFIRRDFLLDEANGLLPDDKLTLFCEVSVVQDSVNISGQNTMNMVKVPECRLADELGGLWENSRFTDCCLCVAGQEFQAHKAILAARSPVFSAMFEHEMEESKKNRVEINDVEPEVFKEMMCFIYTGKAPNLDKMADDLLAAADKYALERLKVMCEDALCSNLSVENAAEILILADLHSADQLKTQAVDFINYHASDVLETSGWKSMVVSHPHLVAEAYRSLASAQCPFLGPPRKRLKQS

Target: FLAG-TNF-α (UniProt P06804)
Assay: co-IP; SPOP+/+ and SPOP-/- MEFs stimulated by FLAG-TNF-α for the indicated periods of time; TNF-RSC immunoprecipitated using anti-Flag resin, immunoblot

Substance: speckle-type POZ protein (SPOP), endogenous in MEFs (from UniProt Q6ZWS8 1-374)
- binding: no binding

These are yes or no findings as the source states them, for the method shown. Binding seen in cells or lysates may run through a third protein.
